The list shows a part of the results. Further columns of the screen follow, without active or inactive calls. Most of these compounds were active or inconclusive in the main read-out, so they are no random draw.
Assay: hepatocyte lipid droplet accumulation inhibitors, confirmation, imaging, AML12 mouse hepatocytes, single concentration, high-content (AID 463183);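 further: cells counted after overnight compound exposure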
Conditions: BODIPY lipid droplet imaging, measured here: cell count, cytotoxicity, at 5.2 µM, droplets induced with 100 µM oleic acid

Row | SMILES | cell count [cells]
1 | COc1ccccc1NS(=O)(=O)c1ccc(N/N=C/c2c(C)nn(-c3ccccc3)c2N2CCCC2)c([N+](=O)[O-])c1 | 1540
2 | Cn1c(=O)c(=O)n(C)c2cc(N3CCCC3)c(NS(=O)(=O)c3ccc(Cl)cc3)cc21 | 1600
3 | CCCNS(=O)(=O)c1ccc(CCC(=O)Nc2cc(Cl)ccc2Oc2ccccc2)cc1 | 1650
4 | C=CCOc1ccc(-c2nc3c(c(=O)[nH]c(=O)n3Cc3ccccc3)n2CCCOC)cc1 | 1500
5 | CN(C)c1nc(N/N=C/c2c[nH]c3ccccc23)nc(N2CCOCC2)n1 | 547
6 | CCOc1ccc(C(=O)CCC(=O)NCC(=O)OCc2ccccc2)cc1OCC | 1650
7 | CCOC(=O)c1cc(-c2ccc(F)cc2)n(CC(=O)NC(C)CC)c1C (centres undefined) | 1670
8 | CCCOc1ccc(/C=N/Nc2ccccc2[N+](=O)[O-])c(O)c1 | 1640
9 | C/C=C(/C)C(=O)O[C@@H]1[C@H](OC(=O)C=C(C)C)c2c(ccc3ccc(=O)oc23)OC1(C)C | 1590
10 | OCC[C@@H]1C[C@H](O)[C@@H](O)[C@]2(Cc3ccccc3O2)O1 | 1670
11 | CCOc1ccc2c(c1)-c1c(ssc1=S)C(C)(C)N2C(=O)CSC1=NCCS1 | 1560
12 | CCOC(=O)C1CCN(C(=O)C2(NC(=O)Nc3ccccc3C)CCCCC2)CC1 | 1640
13 | Oc1ccc(N=Nc2cccc(C(F)(F)F)c2)cc1C=Nc1ccc(N2CCOCC2)cc1 | 1580
14 | CCOc1ccc(CCNC(=O)CCc2nnc3ccc(N4CCCCC4)nn23)cc1OCC | 1540
15 | CCOc1ccc(CCNC(=O)COC(=O)/C=C/c2ccc(OC)c(OC)c2)cc1OCC | 1590
16 | CCOc1ccc(CCNC(=O)c2nnc(Cc3ccc(F)cc3)o2)cc1OCC | 1610
17 | CCOc1ccc(CCNC(=O)CCS(=O)(=O)c2ccc(C)cc2)cc1OCC | 1610
18 | CCOc1ccc(CCNC(=O)CN2C(=O)NC(CCSC)C2=O)cc1OCC (centres undefined) | 1590
19 | CC(=O)c1ccc(N2CCCC2)c(F)c1 | 1590
20 | CC(Sc1nnc(Nc2ccccc2)s1)C(=O)Nc1nc(-c2ccccc2)cs1 (centres undefined) | 1560

Part of the list above, in markdown.

| Row | SMILES | cell count [cells] |
| --- | --- | --- |
| 2 | Cn1c(=O)c(=O)n(C)c2cc(N3CCCC3)c(NS(=O)(=O)c3ccc(Cl)cc3)cc21 | 1600 |
| 14 | CCOc1ccc(CCNC(=O)CCc2nnc3ccc(N4CCCCC4)nn23)cc1OCC | 1540 |

Later entries.

Row | SMILES | cell count [cells]
21 | CCOC(=O)C1CCN(S(=O)(=O)c2ccc3c(c2)NC(=O)C(C)C(=O)N3)CC1 (centres undefined) | 1600
22 | C/C(=N\N=C(/N)c1nonc1N)c1ccc2c(c1)OCO2 | 1580
23 | CCCCOc1ccc(/C=C/C(=O)OCC(=O)c2c(N)n(C)c(=O)n(C)c2=O)cc1OCC | 1640
24 | CCOc1ccc(CCNC(=O)CN2C(=O)NC3(CCCC3)C2=O)cc1OCC | 1560
25 | Cc1cc2c(cc1S(=O)(=O)Nc1c(C)cccc1C)n(C)c(=O)c(=O)n2C | 1600
26 | O=C(CNc1cc(S(=O)(=O)N2CCCC2)ccc1OCC(F)(F)F)Nc1cccc(C(F)(F)F)c1 | 1490
27 | Cc1[nH]n(-c2ccccc2)c(=O)c1N=Nc1ccc(C(=O)O)cc1 | 1650
28 | CCOc1ccc(NS(=O)(=O)c2ccc(C(=O)N(CC)CC(=O)NCc3cccs3)cc2)cc1 | 1690
29 | CCCCNC(=O)C1CCN(C(=O)Nc2ccc(C)cc2)CC1 | 1470
30 | Cc1cc(C)c(S(=O)(=O)N2CCOC2CNC(=O)C(=O)NCCc2c[nH]c3ccccc23)c(C)c1 (centres undefined) | 1580
31 | COc1ccc(NC(=O)Nc2cccc3ccccc23)c(OC)c1 | 1590
32 | COc1ccc(CCNC(=O)[C@H](C)N2C(=O)N3CCc4c([nH]c5ccccc45)[C@@]3(C)C2=O)cc1OC | 1600
33 | Oc1[nH]c2ccccc2c1N=Nc1nc(Nc2ccccc2)nc(N2CCOCC2)n1 | 610
34 | CCOC(=O)N1CCN(C(=O)CSCC(=O)Nc2nc(-c3cccs3)cs2)CC1 | 1550
35 | CCOC(=O)c1ccc(NC(=O)CN(Cc2ccc(Cl)cc2)S(C)(=O)=O)cc1 | 1590
36 | Cc1ccc(C)c(NC(=O)Cn2cc(C(=O)C3CC3)c3ccccc32)c1 | 1600
37 | Cc1cc2nn(-c3ccc(Cl)cc3)nc2cc1N | 1620
38 | CCOc1ccccc1Nc1nnc(SCC(=O)Nc2nc(-c3ccc(OC)cc3)cs2)s1 | 1580
39 | COc1ccc(-c2csc(NC(=O)c3ccc(OCC(=O)N4CCOCC4)c(OC)c3)n2)cc1 | 1520

From PubChem BioAssay AID463183 (Sanford-Burnham Center for Chemical Genomics, 2010)
